Measurements as given in paper PMC12548414.
Hit rate of the full screen: of about 1,600 compounds, about 20 (1%) showed an effect of 50% or more. The list shows a part of the results.

These compounds were tested on T1, E. coli pLC1021 (luc-trpAt trans-translation reporter). Details: reporter signal, KKL-35 = 100%; rise means trans-translation inhibition; 2 h, 20 µM.
T1 construct: pLC1021 luc-trpAt reporter strain
Parameters: species or system Escherichia coli pLC1021; luc-trpAt non-stop luciferase reporter; luminescence rises when trans-translation is inhibited; normalized to KKL-35 and DMSO
Outline: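 Luminescence (560 nm, 10 min after Bright-Glo) reports luciferase that escapes trans-translation tagging, measured after 2 h room-temperature treatment with 20 µM compound. Each plate was scaled between DMSO (negative) and 20 µM KKL-35 (positive) controls. Compounds scoring one standard deviation above the median counted as positive; at least two biological repeats.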

Row | Compound | % activation [%]
1 | COc1cc(/C=C/c2ccc3cccc(O)c3n2)cc([N+](=O)[O-])c1O [KKL-1276] | 0
2 | COc1ccc(-c2cc(C(=O)NN=C/C=C/c3ccccc3OC)[nH]n2)cc1 [KKL-1473] | 0
3 | Cc1ccc2oc(-c3cc(NC(=O)Cc4ccccc4)ccc3Cl)nc2c1 [KKL-0856] | 0
4 | COc1ccc2c(c1)C=C(CN(CCCn1ccnc1)Cc1ccc(C)o1)CO2 [KKL-0338] | 0
5 | CCOC(=O)C1=C(c2ccccc2)N=C(N)NC1c1ccc(OCc2ccc(Cl)cc2)c(OC)c1 (stereo not drawn) [KKL-0385] | 6
6 | COc1ccc2c(c1)NC1(COC3(CCN(C(=O)C4CCCC4)CC3)C1)c1cccn1-2 (stereo not drawn) [KKL-1225] | 8
7 | Cc1c(CN2CCC(CO)(CCOc3ccccc3)CC2)[nH]c2c(Cl)cccc12 [KKL-0669] | 0
8 | CCOC(=O)COc1ccc2c(=O)c(Oc3cnn(-c4ccccc4)c3)c(C)oc2c1 [KKL-1201] | 12
9 | Cc1cccc(OCCCn2cnc3cc(C)c(C)cc32)c1 [KKL-1257] | 10
10 | CCCCc1cc(=O)oc2cc(OC(C)C(=O)OCC)c(Cl)cc12 (stereo not drawn) [KKL-0297] | 0
11 | CCCc1cc2c(=O)c(-c3ccc4c(c3)OCCCO4)coc2cc1OCC(=O)OCC [KKL-1419] | 0
12 | O=C(NCCCc1ccc(F)cc1)c1cc(-c2ccccn2)[nH]n1 [KKL-0693] | 0
13 | CSc1ncc(C(=O)Nc2cccc(-c3csnn3)c2)cn1 [KKL-0679] | 0
14 | CC(=O)OC1CC2C(COC(=O)CC(C)C)=COC(OC(=O)CC(C)C)C2C1(O)COC(=O)CC(C)C (stereo not drawn) [KKL-1614] | 0
15 | Cc1cc(OCC(=O)NC[C@H]2CC[C@H](c3nnc(-c4cccs4)o3)CC2)ccc1Cl [KKL-0524] | 0
16 | COc1ccccc1-c1csc(NC(=O)c2cccc(Cn3nc(C)cc3C)c2)n1 [KKL-0559] | 3
17 | COC(=O)COc1ccc(NC(=O)COc2ccc(C(C)(C)C)cc2)cc1 [KKL-1271] | 0
18 | O=C(Nc1ccc(NC2=NCCN2)cc1)c1ccc(C(=O)Nc2ccc(NC3=NCCN3)cc2)cc1 [KKL-1729] | 0
19 | O=C(N[C@H](CO)[C@H](O)c1ccc([N+](=O)[O-])cc1)C(Cl)Cl [KKL-0367] | 0
20 | Cc1c(CN2CCC(C(=O)Nc3ccc(-n4cnnn4)cc3)CC2)[nH]c2ccc(F)cc12 [KKL-1181] | 2
21 | COc1ccc(-c2csc(-c3ccc(OC)c(OC)c3)n2)cc1C [KKL-0864] | 1

In the list so far, 2 contain fluorine:
Row | Compound | % activation [%]
12 | O=C(NCCCc1ccc(F)cc1)c1cc(-c2ccccn2)[nH]n1 [KKL-0693] | 0
20 | Cc1c(CN2CCC(C(=O)Nc3ccc(-n4cnnn4)cc3)CC2)[nH]c2ccc(F)cc12 [KKL-1181] | 2

Going on with the list:

Row | Compound | % activation [%]
22 | COc1ccccc1NC(=O)CSc1nc(-c2ccccc2)cc(C(F)(F)F)c1C#N [KKL-1359] | 0
23 | O=C(NCc1ccccc1F)N1CCN(Cc2ccc(Br)s2)CC1 [KKL-1829] | 1
24 | C=CCNc1nnc(Sc2ncccc2[N+](=O)[O-])s1 [KKL-0849] | 0
25 | CCC(C)c1ccc(O)c(NC(=S)NC(=O)c2ccc(-c3ccc(Cl)cc3)o2)c1 (stereo not drawn) [KKL-0745] | 0
26 | CCc1nc2sc(C(=O)NCc3ccc(F)cc3)c(N)c2c(C(F)(F)F)c1C [KKL-0606] | 1
27 | Cc1ccc(C)c(-c2nn(-c3cc(N4CCN(C)CC4)ccc3[N+](=O)[O-])c(=O)c3ccccc23)c1 [KKL-1426] | 0
28 | COc1ccc2nc(C)cc(SCC(=O)Nc3cc(Cl)ccc3Cl)c2c1 [KKL-1254] | 2
29 | CC(C)(C)c1cc(Cl)ccc1OCCn1ccnc1 [KKL-1304] | 11
30 | O=C(Nc1ncc(Cc2ccccc2F)s1)c1ccccc1Cn1ccnc1 [KKL-0940] | 0
31 | CC(C)COc1ccc(-c2nnn(CC(=O)Nc3ccc4c(c3)OCCO4)n2)cc1 [KKL-1251] | 9
32 | COc1ccc(NCc2cc3ccc(SC)cc3nc2O)c(OC)c1 [KKL-1197] | 0
33 | CCCOc1ccc(N2CC(C(=O)Nc3cc(C)ccn3)CC2=O)cc1 (stereo not drawn) [KKL-0689] | 0
34 | CCc1nc2ccccc2n1CC(O)COc1cc(C)ccc1Cl (stereo not drawn) [KKL-1822] | 0
35 | Nc1nc(N)c2c(Sc3ccc4ccccc4c3)cccc2n1 [KKL-1710] | 0
36 | COC(=O)CSc1nnc(NC(=O)c2ccc(C(C)(C)C)cc2)s1 [KKL-0732] | 0
37 | O=[N+]([O-])c1ccc(N2CCN(CCO)CC2)cc1NCCOc1cccc2ccccc12 [KKL-0869] | 0
38 | CCOC(=O)c1c(-c2ccccc2)csc1NC(=O)c1cc2ccccc2oc1=O [KKL-1086] | 10
39 | O=C(Nc1cccc(Br)c1)c1ccc(-c2ccc(Cl)cc2)o1 [KKL-1279] | 0
40 | CNc1nc(SC)nnc1-c1cccc(Cl)c1Cl [KKL-1758] | 0
41 | COC(=O)c1ccc(-c2noc(CN3CCCC(c4nc5ccccc5o4)C3)n2)cc1 (stereo not drawn) [KKL-0492] | 3
42 | COC(=O)Cc1c(C)c2ccc(OCC(=O)OCc3ccccc3)c(C)c2oc1=O [KKL-1551] | 4

Entries above that have a halogen, in the order listed:
Row | Compound | % activation [%]
3 | Cc1ccc2oc(-c3cc(NC(=O)Cc4ccccc4)ccc3Cl)nc2c1 [KKL-0856] | 0
5 | CCOC(=O)C1=C(c2ccccc2)N=C(N)NC1c1ccc(OCc2ccc(Cl)cc2)c(OC)c1 (stereo not drawn) [KKL-0385] | 6
7 | Cc1c(CN2CCC(CO)(CCOc3ccccc3)CC2)[nH]c2c(Cl)cccc12 [KKL-0669] | 0
10 | CCCCc1cc(=O)oc2cc(OC(C)C(=O)OCC)c(Cl)cc12 (stereo not drawn) [KKL-0297] | 0
12 | O=C(NCCCc1ccc(F)cc1)c1cc(-c2ccccn2)[nH]n1 [KKL-0693] | 0
15 | Cc1cc(OCC(=O)NC[C@H]2CC[C@H](c3nnc(-c4cccs4)o3)CC2)ccc1Cl [KKL-0524] | 0
19 | O=C(N[C@H](CO)[C@H](O)c1ccc([N+](=O)[O-])cc1)C(Cl)Cl [KKL-0367] | 0
20 | Cc1c(CN2CCC(C(=O)Nc3ccc(-n4cnnn4)cc3)CC2)[nH]c2ccc(F)cc12 [KKL-1181] | 2
22 | COc1ccccc1NC(=O)CSc1nc(-c2ccccc2)cc(C(F)(F)F)c1C#N [KKL-1359] | 0
23 | O=C(NCc1ccccc1F)N1CCN(Cc2ccc(Br)s2)CC1 [KKL-1829] | 1
25 | CCC(C)c1ccc(O)c(NC(=S)NC(=O)c2ccc(-c3ccc(Cl)cc3)o2)c1 (stereo not drawn) [KKL-0745] | 0
26 | CCc1nc2sc(C(=O)NCc3ccc(F)cc3)c(N)c2c(C(F)(F)F)c1C [KKL-0606] | 1
28 | COc1ccc2nc(C)cc(SCC(=O)Nc3cc(Cl)ccc3Cl)c2c1 [KKL-1254] | 2
29 | CC(C)(C)c1cc(Cl)ccc1OCCn1ccnc1 [KKL-1304] | 11
30 | O=C(Nc1ncc(Cc2ccccc2F)s1)c1ccccc1Cn1ccnc1 [KKL-0940] | 0
34 | CCc1nc2ccccc2n1CC(O)COc1cc(C)ccc1Cl (stereo not drawn) [KKL-1822] | 0
39 | O=C(Nc1cccc(Br)c1)c1ccc(-c2ccc(Cl)cc2)o1 [KKL-1279] | 0
40 | CNc1nc(SC)nnc1-c1cccc(Cl)c1Cl [KKL-1758] | 0

Next part.

Row | Compound | % activation [%]
43 | O=C(N[C@H]1CC[C@]2(CC1)CC(=O)c1ccccc1O2)c1cc2ccccc2o1 [KKL-1190] | 0
44 | CC(C)(C)c1ccc(C(=O)NC(=S)N2CCCC2)cc1 [KKL-1436] | 12
45 | COc1ccccc1C1=Nc2cccc3cccc(c23)N1 [KKL-0723] | 0
46 | O=C(CC12CC3CC(CC(C3)C1)C2)NC(=S)Nc1ccc(-c2nc3ccccc3[nH]2)cc1 [KKL-1301] | 0
47 | O=C(CC12CC3CC(CC(C3)C1)C2)Nc1cccc(C(F)(F)F)c1 [KKL-1282] | 0
48 | COC(=O)c1ccc2nc(C)cc(Nc3ccc(OCc4ccccc4)cc3)c2c1 [KKL-1102] | 0
49 | COC(=O)c1ccc(C(=O)NC2CC(C)(C)Cc3c2cnn3-c2ccc(F)cc2)nc1 (stereo not drawn) [KKL-1173] | 6
50 | N#CCCN(Cc1ccccc1)C(=S)NC(=O)c1ccccc1 [KKL-0582] | 14
51 | CCOc1ccc(CN2CCN(CC(O)Cn3c4ccccc4c4ccccc43)CC2)cc1 (stereo not drawn) [KKL-1098] | 0
52 | O=C(Nc1ccn(Cc2ccc(Cl)cc2)n1)c1ccc2c(c1)OCO2 [KKL-0566] | 0
53 | O=C(Cn1cccc2cc(-c3ccco3)nc1-2)NCCOc1ccccc1 [KKL-0462] | 4
54 | COC(=O)[C@@H]1Cc2c([nH]c3ccccc23)[C@H]2C[C@@H](NCCO)C[C@@H](c3ccc(-c4ccccc4)cc3)N21 [KKL-1602] | 0
55 | CSc1ncc(C(=O)Nc2ccc3[nH]c4c(c3c2)CCCC4)cn1 [KKL-0710] | 0
56 | Cc1ccc(Nc2c(-c3ccccn3)nc3cc(C)ccn23)cc1 [KKL-1523] | 0
57 | Cc1cc(C)c2[nH]c3ccccc3c2n1 [KKL-1375] | 0
58 | CCOC(=O)CSc1ccc(-c2nc3cc(C)c(C)cc3[nH]2)cn1 [KKL-1664] | 0
59 | CC1CC1c1ccc(CN2CCc3nc(Nc4ccccc4)sc3CC2)o1 (stereo not drawn) [KKL-1777] | 0
60 | CCC(CC)c1cc([C@H]2CN3CC[C@H]2C[C@@H]3CNCc2ccc(CO)o2)nc(-c2ccncc2)n1 [KKL-1592] | 0
61 | CC(C)(C)c1cnc(NC(=O)c2ccccc2O)s1 [KKL-1388] | 0
62 | Cc1ccn2c(-c3csc(Nc4ccccn4)n3)c(C)nc2c1 [KKL-0773] | 0
63 | CC(=O)N1CC2(CCN(C(=O)CCc3nc4ccccc4oc3=O)CC2)Nc2ccccc21 [KKL-1234] | 2

Row | Compound | % activation [%]
64 | c1ccc(-c2nc(NCCCn3ccnc3)c3oc4ccccc4c3n2)cc1 [KKL-0999] | 6
65 | O=C(NC(=S)Nc1ccccc1N1CCCC1)c1cccc2ccccc12 [KKL-1488] | 12
66 | COc1ccc(CNC(=O)c2c(C)nc3ccccn23)cc1 [KKL-1644] | 0
67 | Cc1ccc2c(c1)c(=O)cc(C(F)(F)F)n2CCNC(=O)c1ccccn1 [KKL-1728] | 0
68 | Cc1cc(Oc2ccc(N(C)C)cc2)cc(C2CCCN(C(=O)c3cc(C4CC4)on3)C2)n1 (stereo not drawn) [KKL-1227] | 0
69 | CCOC(=O)c1cccc(NC(=O)C(Cl)Cl)c1 [KKL-0726] | 0
70 | Cc1nn(-c2ccc(F)cc2)c2nc(O)c(CNCc3ccccc3F)cc12 [KKL-0342] | 0
71 | CCc1ccc(NC(=O)c2cnc(N3CCN(c4ccccn4)CC3)c3ccccc23)cc1 [KKL-1597] | 4
72 | CCOC(=O)COc1ccc2c(=O)c(-c3ccccc3F)coc2c1C [KKL-1532] | 0
73 | O=C(NC(Cc1ccccc1)C(=O)Nc1ccccc1N1CCOCC1)c1cccs1 (stereo not drawn) [KKL-1830] | 2
74 | COC(=O)CSc1nc(N2CCCCC2)c2c(c1C#N)CCCC2 [KKL-1493] | 0
75 | COc1ccc2nccc(NC(=O)C3CCN(CCc4ccc(Cl)cc4)CC3)c2n1 [KKL-1814] | 1
76 | Cc1cccc(Nc2nc(N)nc(CN3CCN(c4cccc(Cl)c4)CC3)n2)c1 [KKL-1055] | 0
77 | Cc1oc2c(c1C(=O)Nc1cccc3ccccc13)CCCC2 [KKL-1492] | 0
78 | COC(=O)C(C)Oc1ccc2c(=O)c(-c3ccc(Br)cc3)c(C)oc2c1 (stereo not drawn) [KKL-0414] | 9
79 | c1ccc(C[C@H]2CN(c3nccc(Oc4ccc(-n5ccnc5)cc4)n3)CCN2)cc1 [KKL-1739] | 4
80 | Clc1nc(NC2CC2)c2ccccc2n1 [KKL-1262] | 0
81 | Cc1c(Cl)ccc(OCCCN2CCCC(C)C2)c1C (stereo not drawn) [KKL-1427] | 0
82 | Cc1ccccc1OCCCON1C(=N)N=C(N)NC1(C)C [KKL-1698] | 11
83 | COC(=O)CSc1nnc(-c2ccc(OC)c(OC)c2)o1 [KKL-1665] | 0
84 | CCc1nc2sc3ccccc3c(=O)c2c(=O)n1Cc1ccc(OC)cc1 [KKL-0893] | 0
